{"source": "PubChem BioAssay AID686938 | Drosophila RNAi Screening Center | 2013", "screen": "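Knock-downs reducing store-operated calcium influx in Drosophila cells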 (primary screen)", "cells": "Drosophila S2R+ cells", "knock-down reagent": "long dsRNA against Drosophila genes, about 0.25 µg dsRNA per well, roughly 10,000 cells", "duration": "5 days of knock-down before the calcium assay", "challenge": "thapsigargin (SERCA pump blocker) to empty calcium stores; entry signal taken 4 min after adding it", "measurement": "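Per-well fluo-4 fluorescence in two replicates, unnormalised, measured in resting cells and 4 min after store depletion by the SERCA blocker thapsigargin; ratio of the two present in few wells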", "direction": "calcium entry signal: higher = stronger calcium signal after store depletion; resting calcium signal: higher = higher resting calcium signal", "units": "calcium entry signal in fluorescence units; resting calcium signal in fluorescence units", "active means": "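Called when the plate z-score of the entry-to-rest ratio, mean of duplicates, falls below −3; wells with low overall dye signal (Fmax z below −2) or more than five off-targets excluded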", "meaning of the calls": "active = strongly reduced calcium entry; inactive = no strong reduction", "note": "In all, the deposit lists about 23,000 reagents; this is a random part of those with a known target gene and a result. In the full data, 75 (0.33%) were called active. 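Raw plate signals without normalisation; calls rest on plate z-scores that were not deposited; ratio present for only 364 wells.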 Entries without a mark were called inactive. Not stated in the record: the dose of the treatment."}
{"predicted target": "CG18480", "DRSC id": "DRSC01957", "calcium entry signal, replicate 1": 5.96e7, "resting calcium signal, replicate 1": 2.62e7}
{"predicted target": "CG5080", "DRSC id": "DRSC00677", "calcium entry signal, replicate 1": 3.66e7, "resting calcium signal, replicate 1": 2.23e7}
{"predicted target": "CG7646", "DRSC id": "DRSC11232", "calcium entry signal, replicate 1": 3.27e7, "calcium entry signal, replicate 2": 5.21e7, "resting calcium signal, replicate 1": 1.55e7, "resting calcium signal, replicate 2": 2.00e7}
{"predicted target": "Gorab (Golgin, RAB6 interacting)", "DRSC id": "DRSC10383", "calcium entry signal, replicate 1": 3.67e7, "calcium entry signal, replicate 2": 3.43e7, "resting calcium signal, replicate 1": 1.61e7, "resting calcium signal, replicate 2": 1.51e7}
{"predicted target": "Tctp (Translationally controlled tumor protein)", "DRSC id": "DRSC15649", "calcium entry signal, replicate 1": 3.15e7, "calcium entry signal, replicate 2": 2.85e7, "resting calcium signal, replicate 1": 1.62e7, "resting calcium signal, replicate 2": 1.47e7}

An excerpt from above, reduced to “resting calcium signal, replicate 1”.
CG18480 [DRSC01957]	2.62e7
CG5080 [DRSC00677]	2.23e7

The results go on:
{"predicted target": "Rabex-5 (Rabaptin-5-associated exchange factor for Rab5)", "DRSC id": "DRSC08628", "calcium entry signal, replicate 1": 3.35e7, "calcium entry signal, replicate 2": 2.99e7, "resting calcium signal, replicate 1": 1.55e7, "resting calcium signal, replicate 2": 1.40e7}
{"predicted target": "Ten-a (Tenascin accessory)", "DRSC id": "DRSC18924", "calcium entry signal, replicate 1": 4.32e7, "calcium entry signal, replicate 2": 3.01e7, "resting calcium signal, replicate 1": 2.02e7, "resting calcium signal, replicate 2": 1.54e7}
{"predicted target": "Ten-a (Tenascin accessory)", "DRSC id": "DRSC19496", "calcium entry signal, replicate 1": 2.84e7, "calcium entry signal, replicate 2": 3.58e7, "resting calcium signal, replicate 1": 1.70e7, "resting calcium signal, replicate 2": 2.31e7}
{"predicted target": "Ten-a (Tenascin accessory)", "DRSC id": "DRSC19700", "calcium entry signal, replicate 1": 3.95e7, "calcium entry signal, replicate 2": 4.87e7, "resting calcium signal, replicate 1": 1.87e7, "resting calcium signal, replicate 2": 2.39e7}
{"predicted target": "Ten-a (Tenascin accessory)", "DRSC id": "DRSC19793", "calcium entry signal, replicate 1": 3.68e7, "calcium entry signal, replicate 2": 3.94e7, "resting calcium signal, replicate 1": 1.72e7, "resting calcium signal, replicate 2": 1.90e7}
{"predicted target": "Ten-a (Tenascin accessory)", "DRSC id": "DRSC19864", "calcium entry signal, replicate 1": 3.74e7, "calcium entry signal, replicate 2": 3.33e7, "resting calcium signal, replicate 1": 1.84e7, "resting calcium signal, replicate 2": 1.65e7}
{"predicted target": "Ten-a (Tenascin accessory)", "DRSC id": "DRSC19865", "calcium entry signal, replicate 1": 3.42e7, "calcium entry signal, replicate 2": 3.46e7, "resting calcium signal, replicate 1": 1.68e7, "resting calcium signal, replicate 2": 1.71e7}
{"predicted target": "Ten-a (Tenascin accessory)", "DRSC id": "DRSC20290", "calcium entry signal, replicate 1": 3.05e7, "calcium entry signal, replicate 2": 4.07e7, "resting calcium signal, replicate 1": 1.56e7, "resting calcium signal, replicate 2": 2.08e7}
{"predicted target": "Ten-a (Tenascin accessory)", "DRSC id": "DRSC21461", "calcium entry signal, replicate 1": 2.46e7, "calcium entry signal, replicate 2": 2.44e7, "resting calcium signal, replicate 1": 1.40e7, "resting calcium signal, replicate 2": 1.19e7}
{"predicted target": "Ten-a (Tenascin accessory)", "DRSC id": "DRSC23016", "calcium entry signal, replicate 1": 3.74e7, "calcium entry signal, replicate 2": 3.44e7, "resting calcium signal, replicate 1": 1.60e7, "resting calcium signal, replicate 2": 1.47e7}
